In PMC10616211:
Results are given in words; binding and its absence hold for the method and conditions named. For some of these results: Binding seen in cells or lysates may run through a third protein. Some binding calls cover weakened binding; strength is not graded here. For some of these results: Tags and fused reporters may be left off the sequences shown.

Amino acid sequences for entries named in this document (tags omitted). A change or cut given only in a name is not applied to a line headed by its entry. Residues count along the entry.
UniProt P21796: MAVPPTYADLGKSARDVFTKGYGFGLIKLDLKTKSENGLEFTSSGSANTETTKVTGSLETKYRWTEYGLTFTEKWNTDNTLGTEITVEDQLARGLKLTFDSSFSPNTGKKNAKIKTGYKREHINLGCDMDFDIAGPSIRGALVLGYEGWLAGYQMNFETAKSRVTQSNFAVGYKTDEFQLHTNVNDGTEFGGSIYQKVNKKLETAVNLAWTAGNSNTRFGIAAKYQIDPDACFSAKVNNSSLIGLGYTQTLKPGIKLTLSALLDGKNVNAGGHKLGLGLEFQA
UniProt P38646, residues 47-679: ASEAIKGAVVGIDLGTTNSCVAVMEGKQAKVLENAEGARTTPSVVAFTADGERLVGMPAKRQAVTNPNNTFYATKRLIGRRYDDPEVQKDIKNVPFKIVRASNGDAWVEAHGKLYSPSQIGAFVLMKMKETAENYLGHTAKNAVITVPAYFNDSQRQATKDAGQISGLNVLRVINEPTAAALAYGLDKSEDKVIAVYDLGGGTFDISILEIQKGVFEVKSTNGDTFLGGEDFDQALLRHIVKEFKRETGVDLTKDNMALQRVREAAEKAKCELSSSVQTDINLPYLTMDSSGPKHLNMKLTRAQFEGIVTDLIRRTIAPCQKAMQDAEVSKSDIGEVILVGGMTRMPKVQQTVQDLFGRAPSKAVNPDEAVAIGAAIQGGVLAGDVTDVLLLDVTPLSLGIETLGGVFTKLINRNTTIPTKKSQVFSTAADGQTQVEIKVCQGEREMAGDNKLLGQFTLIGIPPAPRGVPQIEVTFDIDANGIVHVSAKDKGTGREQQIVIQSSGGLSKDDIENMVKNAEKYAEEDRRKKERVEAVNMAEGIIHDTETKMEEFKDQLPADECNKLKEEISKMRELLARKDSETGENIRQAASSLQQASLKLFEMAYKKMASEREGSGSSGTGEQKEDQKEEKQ
UniProt P61586: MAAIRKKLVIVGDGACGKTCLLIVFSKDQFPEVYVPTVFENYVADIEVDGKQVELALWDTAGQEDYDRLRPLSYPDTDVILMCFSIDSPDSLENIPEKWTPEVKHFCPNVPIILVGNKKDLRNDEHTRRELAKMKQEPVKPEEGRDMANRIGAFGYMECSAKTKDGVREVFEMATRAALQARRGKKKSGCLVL
UniProt O60610: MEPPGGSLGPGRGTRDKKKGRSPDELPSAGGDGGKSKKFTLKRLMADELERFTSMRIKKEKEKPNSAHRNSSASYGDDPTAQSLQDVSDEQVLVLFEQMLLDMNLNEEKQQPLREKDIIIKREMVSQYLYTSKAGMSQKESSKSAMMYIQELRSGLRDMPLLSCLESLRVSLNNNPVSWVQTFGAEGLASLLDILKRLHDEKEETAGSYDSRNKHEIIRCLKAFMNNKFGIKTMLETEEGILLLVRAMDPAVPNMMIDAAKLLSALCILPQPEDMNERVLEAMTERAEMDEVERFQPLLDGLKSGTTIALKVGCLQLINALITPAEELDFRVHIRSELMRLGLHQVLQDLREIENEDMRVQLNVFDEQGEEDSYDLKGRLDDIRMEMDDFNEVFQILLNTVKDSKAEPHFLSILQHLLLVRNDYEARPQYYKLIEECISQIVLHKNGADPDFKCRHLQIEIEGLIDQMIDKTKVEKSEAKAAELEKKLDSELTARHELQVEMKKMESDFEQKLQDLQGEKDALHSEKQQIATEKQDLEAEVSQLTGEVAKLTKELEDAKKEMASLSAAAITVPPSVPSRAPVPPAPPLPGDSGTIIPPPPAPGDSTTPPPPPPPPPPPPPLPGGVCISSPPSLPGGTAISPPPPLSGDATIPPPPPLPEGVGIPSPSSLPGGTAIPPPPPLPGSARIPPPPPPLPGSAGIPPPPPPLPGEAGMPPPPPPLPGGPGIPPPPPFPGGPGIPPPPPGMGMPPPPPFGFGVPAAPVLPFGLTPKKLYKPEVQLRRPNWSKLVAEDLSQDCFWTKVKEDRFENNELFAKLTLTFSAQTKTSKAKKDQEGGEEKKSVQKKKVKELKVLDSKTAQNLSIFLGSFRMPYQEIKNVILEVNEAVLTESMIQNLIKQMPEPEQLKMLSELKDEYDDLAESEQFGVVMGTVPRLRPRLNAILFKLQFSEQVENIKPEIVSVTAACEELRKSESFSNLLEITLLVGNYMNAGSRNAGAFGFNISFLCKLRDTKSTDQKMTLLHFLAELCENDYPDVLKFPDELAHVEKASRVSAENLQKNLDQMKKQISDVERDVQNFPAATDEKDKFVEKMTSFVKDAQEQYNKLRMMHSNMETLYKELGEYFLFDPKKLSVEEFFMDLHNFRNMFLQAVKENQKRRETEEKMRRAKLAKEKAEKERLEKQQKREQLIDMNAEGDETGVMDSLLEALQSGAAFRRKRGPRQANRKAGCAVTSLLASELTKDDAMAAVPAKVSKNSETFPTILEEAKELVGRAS
UniProt O08808: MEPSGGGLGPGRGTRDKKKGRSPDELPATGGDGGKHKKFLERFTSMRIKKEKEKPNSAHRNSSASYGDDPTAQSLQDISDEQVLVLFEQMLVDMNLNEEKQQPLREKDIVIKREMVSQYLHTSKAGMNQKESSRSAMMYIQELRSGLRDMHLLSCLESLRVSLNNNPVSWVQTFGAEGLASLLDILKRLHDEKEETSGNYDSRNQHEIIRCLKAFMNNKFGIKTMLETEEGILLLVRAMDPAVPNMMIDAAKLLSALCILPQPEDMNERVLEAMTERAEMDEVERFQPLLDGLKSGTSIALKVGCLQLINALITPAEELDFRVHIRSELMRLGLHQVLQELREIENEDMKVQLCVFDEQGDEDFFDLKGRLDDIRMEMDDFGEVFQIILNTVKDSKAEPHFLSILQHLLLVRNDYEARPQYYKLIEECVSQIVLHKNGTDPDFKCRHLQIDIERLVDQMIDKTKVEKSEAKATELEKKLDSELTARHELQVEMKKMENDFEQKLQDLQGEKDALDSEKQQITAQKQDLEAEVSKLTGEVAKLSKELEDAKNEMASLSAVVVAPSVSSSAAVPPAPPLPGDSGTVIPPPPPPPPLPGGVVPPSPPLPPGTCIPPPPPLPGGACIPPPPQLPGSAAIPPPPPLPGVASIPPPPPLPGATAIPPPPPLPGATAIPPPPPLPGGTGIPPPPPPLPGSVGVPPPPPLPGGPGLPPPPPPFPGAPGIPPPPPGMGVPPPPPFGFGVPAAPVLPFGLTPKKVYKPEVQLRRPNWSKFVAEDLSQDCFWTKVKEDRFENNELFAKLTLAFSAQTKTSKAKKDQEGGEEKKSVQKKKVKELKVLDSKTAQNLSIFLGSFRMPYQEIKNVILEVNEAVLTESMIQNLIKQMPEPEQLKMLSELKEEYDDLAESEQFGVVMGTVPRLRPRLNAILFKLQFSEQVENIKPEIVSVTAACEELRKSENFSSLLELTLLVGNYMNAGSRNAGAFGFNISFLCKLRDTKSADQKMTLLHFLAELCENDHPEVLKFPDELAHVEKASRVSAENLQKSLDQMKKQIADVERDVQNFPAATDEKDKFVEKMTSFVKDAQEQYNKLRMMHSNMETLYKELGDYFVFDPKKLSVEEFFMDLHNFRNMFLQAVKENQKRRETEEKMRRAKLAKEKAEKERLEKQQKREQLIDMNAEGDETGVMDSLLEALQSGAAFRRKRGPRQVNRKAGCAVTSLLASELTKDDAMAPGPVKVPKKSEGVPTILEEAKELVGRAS

How the values were obtained:
[1] = biological target: T1, MFN2, endogenous in human microvascular endothelial cells (HMVECs) (human (endogenous in HMVECs)) (UniProt O95140); assay: proximity ligation; Duolink PLA on fixed cells (H9C2, HMVECs, BMDMs), endogenous proteins, rabbit anti-DIAPH1 and mouse anti-MFN2; shScr/WT against shDIAPH1/gDKO cells
T1 sequence: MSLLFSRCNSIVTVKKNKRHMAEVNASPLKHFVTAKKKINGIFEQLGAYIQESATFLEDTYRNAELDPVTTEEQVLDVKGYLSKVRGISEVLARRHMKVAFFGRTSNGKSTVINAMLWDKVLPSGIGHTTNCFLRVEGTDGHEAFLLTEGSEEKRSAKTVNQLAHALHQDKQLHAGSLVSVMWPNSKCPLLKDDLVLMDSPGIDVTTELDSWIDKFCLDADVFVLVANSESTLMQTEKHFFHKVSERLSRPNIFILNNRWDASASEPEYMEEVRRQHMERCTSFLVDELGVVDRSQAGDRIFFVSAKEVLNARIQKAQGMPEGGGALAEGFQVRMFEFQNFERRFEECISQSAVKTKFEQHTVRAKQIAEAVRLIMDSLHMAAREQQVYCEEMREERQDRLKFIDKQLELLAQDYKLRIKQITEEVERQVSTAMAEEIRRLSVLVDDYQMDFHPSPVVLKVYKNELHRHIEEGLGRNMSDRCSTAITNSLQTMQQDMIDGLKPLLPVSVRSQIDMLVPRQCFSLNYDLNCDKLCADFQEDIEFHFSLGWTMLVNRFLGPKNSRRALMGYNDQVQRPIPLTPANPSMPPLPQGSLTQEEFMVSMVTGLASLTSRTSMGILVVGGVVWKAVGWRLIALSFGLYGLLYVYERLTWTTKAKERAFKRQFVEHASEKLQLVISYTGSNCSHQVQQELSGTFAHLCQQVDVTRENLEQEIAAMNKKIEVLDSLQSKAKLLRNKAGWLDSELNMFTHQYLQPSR

[2] = biological target: T2, Truncated, modified cytosolic-MFN2 (human Mitofusin-2, residues 1-19 and 401-705 deleted) (human); assay: cross-linking; 50 µM DID and 50 µM MFN2 with 250-500 µM cross-linker (KMUS, SMCC, SMPB, DSG, BS3, BS(PEG)5, BS(PEG)9), 20 mM potassium phosphate pH 7.5, 100 mM NaCl, 1-2 h at 25 °C; SDS-PAGE, in-gel trypsin digest and LC-MS/MS of the ~75 kDa band; both purified
T2 sequence: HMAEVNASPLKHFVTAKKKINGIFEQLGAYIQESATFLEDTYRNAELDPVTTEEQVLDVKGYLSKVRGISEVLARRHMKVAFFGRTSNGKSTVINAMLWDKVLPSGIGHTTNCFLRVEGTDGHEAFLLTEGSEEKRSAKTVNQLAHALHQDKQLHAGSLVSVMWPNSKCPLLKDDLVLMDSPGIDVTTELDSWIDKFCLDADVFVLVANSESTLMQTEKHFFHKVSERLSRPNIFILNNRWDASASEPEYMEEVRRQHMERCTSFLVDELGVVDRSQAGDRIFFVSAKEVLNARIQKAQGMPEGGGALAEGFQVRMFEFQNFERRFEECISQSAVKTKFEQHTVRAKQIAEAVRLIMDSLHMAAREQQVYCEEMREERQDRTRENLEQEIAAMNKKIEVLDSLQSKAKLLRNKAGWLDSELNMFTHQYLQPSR

[3] = biological target: T3, MFN2, endogenous in mouse bone marrow-derived macrophages (BMDMs) (mouse (endogenous in BMDMs)) (UniProt Q80U63); assay: proximity ligation; Duolink PLA on fixed cells (H9C2, HMVECs, BMDMs), endogenous proteins, rabbit anti-DIAPH1 and mouse anti-MFN2; shScr/WT against shDIAPH1/gDKO cells
T3 sequence: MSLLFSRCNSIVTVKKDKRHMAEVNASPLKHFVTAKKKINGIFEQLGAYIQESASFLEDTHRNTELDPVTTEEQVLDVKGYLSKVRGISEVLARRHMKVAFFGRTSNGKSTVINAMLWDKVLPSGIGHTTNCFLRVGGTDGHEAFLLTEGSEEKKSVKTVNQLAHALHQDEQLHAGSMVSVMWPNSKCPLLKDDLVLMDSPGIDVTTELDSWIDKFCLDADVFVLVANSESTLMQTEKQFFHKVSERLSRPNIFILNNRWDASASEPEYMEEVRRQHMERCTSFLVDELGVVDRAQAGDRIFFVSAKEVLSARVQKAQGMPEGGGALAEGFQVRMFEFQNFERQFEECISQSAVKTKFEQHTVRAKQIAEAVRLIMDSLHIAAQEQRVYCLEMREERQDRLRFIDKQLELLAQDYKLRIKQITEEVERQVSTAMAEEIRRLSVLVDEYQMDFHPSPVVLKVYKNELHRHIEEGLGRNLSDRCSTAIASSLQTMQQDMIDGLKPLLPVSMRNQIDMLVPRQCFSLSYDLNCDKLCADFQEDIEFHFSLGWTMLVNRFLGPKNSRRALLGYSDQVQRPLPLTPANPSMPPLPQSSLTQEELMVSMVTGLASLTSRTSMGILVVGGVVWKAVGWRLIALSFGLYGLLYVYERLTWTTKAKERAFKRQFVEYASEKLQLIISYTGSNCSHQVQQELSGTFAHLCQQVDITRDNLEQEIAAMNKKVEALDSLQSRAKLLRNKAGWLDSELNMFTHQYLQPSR

[4] = biological target: T4, Mitofusin-2 (MFN2), endogenous human (human (endogenous in HiPSC-CMs, HMVECs, human heart)) (UniProt O95140); assay: proximity ligation; Duolink PLA on fixed human microvascular endothelial cells (HMVECs), shScr against shDIAPH1
T4 sequence: T1 sequence

[5] = biological target: T4, Mitofusin-2 (MFN2), endogenous human (human (endogenous in HiPSC-CMs, HMVECs, human heart)); assay: proximity ligation; Duolink PLA on paraffin sections of human heart biopsies (ischemic cardiomyopathy and control)
[6] = biological target: T4, Mitofusin-2 (MFN2), endogenous human (human (endogenous in HiPSC-CMs, HMVECs, human heart)); assay: proximity ligation; Duolink PLA on fixed HiPSC-CMs, baseline and H/R; also with shDIAPH1, shAGER, Latrunculin B, RAGE229, CML-AGE, ER-Tracker co-staining
[7] = biological target: VDAC1, endogenous (human (endogenous in HiPSC-CMs, by context)) (UniProt P21796); assay: as above
[8] = biological target: T5, MFN1, endogenous human (human (endogenous in HiPSC-CMs)) (UniProt Q8IWA4); assay: as above
T5 sequence: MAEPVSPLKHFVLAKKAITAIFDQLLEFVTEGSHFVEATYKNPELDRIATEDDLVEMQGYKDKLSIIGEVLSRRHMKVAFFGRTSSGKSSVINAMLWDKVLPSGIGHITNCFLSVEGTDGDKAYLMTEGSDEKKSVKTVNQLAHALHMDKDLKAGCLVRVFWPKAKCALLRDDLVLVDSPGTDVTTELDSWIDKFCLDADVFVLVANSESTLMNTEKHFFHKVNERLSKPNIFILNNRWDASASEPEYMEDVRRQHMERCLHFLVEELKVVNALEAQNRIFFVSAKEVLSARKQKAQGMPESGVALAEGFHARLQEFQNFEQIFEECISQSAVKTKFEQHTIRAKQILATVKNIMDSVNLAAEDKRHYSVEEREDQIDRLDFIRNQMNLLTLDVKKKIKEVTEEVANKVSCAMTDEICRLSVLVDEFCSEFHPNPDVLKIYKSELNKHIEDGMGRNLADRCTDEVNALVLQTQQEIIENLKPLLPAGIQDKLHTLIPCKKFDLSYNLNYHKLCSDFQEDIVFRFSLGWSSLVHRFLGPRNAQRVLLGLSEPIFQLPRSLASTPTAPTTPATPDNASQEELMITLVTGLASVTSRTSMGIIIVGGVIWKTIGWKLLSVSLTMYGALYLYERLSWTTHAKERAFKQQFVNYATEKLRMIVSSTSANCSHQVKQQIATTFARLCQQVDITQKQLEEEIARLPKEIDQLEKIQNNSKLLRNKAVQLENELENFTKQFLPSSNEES

[9] = biological target: GRP75, endogenous (human (endogenous in HiPSC-CMs, by context)) (UniProt P38646); assay: as above
[10] = biological target: RhoA, endogenous (human (endogenous in HiPSC-CMs, by context)) (UniProt P61586); assay: as above
[11] = biological target: T4, Mitofusin-2 (MFN2), endogenous human (human (endogenous in HiPSC-CMs, HMVECs, human heart)); assay: co-IP; HiPSC-CMs (shScr) exposed to H/R; 200 µg lysate, 2 µg antibody to DIAPH1 or MFN2 overnight, agarose A/G beads, Western blot for MFN2, DIAPH1 or MFN1
[12] = biological target: T6, MFN2, endogenous mouse (bone marrow-derived macrophages) (mouse (endogenous in BMDMs)) (UniProt Q80U63); assay: proximity ligation; Duolink PLA on fixed mouse bone marrow-derived macrophages, with and without Diaph1
T6 sequence: T3 sequence

[13] = biological target: T4, Mitofusin-2 (MFN2), endogenous human (human (endogenous in HiPSC-CMs, HMVECs, human heart)); assay: proximity ligation; Duolink PLA on fixed HiPSC-CMs, baseline and H/R; also with shDIAPH1, shAGER, Latrunculin B, RAGE229, CML-AGE, ER-Tracker co-staining; remark: listed apart in the source

DIAPH1, endogenous in human microvascular endothelial cells (HMVECs) (from UniProt O60610 1-1272)
binding [1]: binds

Diaphanous Inhibitory Domain (DID) of human protein diaphanous homolog 1, residues 142-380 (from UniProt O60610 142-380) (domain or fragment)
binding [2]: binds

DIAPH1, endogenous in mouse bone marrow-derived macrophages (BMDMs) (from UniProt O08808 1-1255)
binding [3]: binds

Diaphanous-1 (DIAPH1), endogenous human (from UniProt O60610 1-1272)
binding [4]: binds | binding [5]: binds | binding [6]: binds | binding [7]: no binding | binding [8]: no binding | binding [9]: no binding | binding [10]: binds weakly | binding [11]: binds

DIAPH1, endogenous mouse (bone marrow-derived macrophages) (from UniProt O08808 1-1255)
binding [12]: binds

B1: DIAPH2, endogenous (protein, UniProt O60879 1-1101)
chain: MEQPGAAASGAGGGSEEPGGGRSNKRSAGNRAANEEETKNKPKLNIQIKTLADDVRDRITSFRKSTVKKEKPLIQHPIDSQVAMSEFPAAQPLYDERSLNLSEKEVLDLFEKMMEDMNLNEEKKAPLRNKDFTTKREMVVQYISATAKSGGLKNSKHECTLSSQEYVHELRSGISDEKLLNCLESLRVSLTSNPVSWVNNFGHEGLGLLLDELEKLLDKKQQENIDKKNQYKLIQCLKAFMNNKFGLQRILGDERSLLLLARAIDPKQPNMMTEIVKILSAICIVGEENILDKLLGAITTAAERNNRERFSPIVEGLENQEALQLQVACMQFINALVTSPYELDFRIHLRNEFLRSGLKTMLPDLKEKENDELDIQLKVFDENKEDDLTELSHRLNDIRAEMDDMNEVYHLLYNMLKDTAAENYFLSILQHFLLIRNDYYIRPQYYKIIEECVSQIVLHCSGMDPDFKYRQRLDIDLTHLIDSCVNKAKVEESEQKAAEFSKKFDEEFTARQEAQAELQKRDEKIKELEAEIQQLRTQAQVLSSSSGIPGPPAAPPLPGVGPPPPPPAPPLPGGAPLPPPPPPLPGMMGIPPPPPPPLLFGGPPPPPPLGGVPPPPGISLNLPYGMKQKKMYKPEVSMKRINWSKIEPTELSENCFWLRVKEDKFENPDLFAKLALNFATQIKVQKNAEALEEKKTGPTKKKVKELRILDPKTAQNLSIFLGSYRMPYEDIRNVILEVNEDMLSEALIQNLVKHLPEQKILNELAELKNEYDDLCEPEQFGVVMSSVKMLQPRLSSILFKLTFEEHINNIKPSIIAVTLACEELKKSESFNRLLELVLLVGNYMNSGSRNAQSLGFKINFLCKIRDTKSADQKTTLLHFIADICEEKYRDILKFPEELEHVESASKVSAQILKSNLASMEQQIVHLERDIKKFPQAENQHDKFVEKMTSFTKTAREQYEKLSTMHNNMMKLYENLGEYFIFDSKTVSIEEFFGDLNNFRTLFLEAVRENNKRREMEEKTRRAKLAKEKAEQEKLERQKKKKQLIDINKEGDETGVMDNLLEALQSGAAFRDRRKRIPRNPDNRRVPLERSRSRHNGAISSK
binding [13]: no binding
